Assay results published in article doi:10.1101/2021.02.14.431134.
No constants are given. Whether binding was seen depends on the method and setting. In cells and extracts the contact can be indirect. Here binding means that the protein was enriched with, or labelled near, the bait; the list need not be complete.

Protein sequences, listed by entry. Tags and fused reporters are not part of them.
UniProt O17695: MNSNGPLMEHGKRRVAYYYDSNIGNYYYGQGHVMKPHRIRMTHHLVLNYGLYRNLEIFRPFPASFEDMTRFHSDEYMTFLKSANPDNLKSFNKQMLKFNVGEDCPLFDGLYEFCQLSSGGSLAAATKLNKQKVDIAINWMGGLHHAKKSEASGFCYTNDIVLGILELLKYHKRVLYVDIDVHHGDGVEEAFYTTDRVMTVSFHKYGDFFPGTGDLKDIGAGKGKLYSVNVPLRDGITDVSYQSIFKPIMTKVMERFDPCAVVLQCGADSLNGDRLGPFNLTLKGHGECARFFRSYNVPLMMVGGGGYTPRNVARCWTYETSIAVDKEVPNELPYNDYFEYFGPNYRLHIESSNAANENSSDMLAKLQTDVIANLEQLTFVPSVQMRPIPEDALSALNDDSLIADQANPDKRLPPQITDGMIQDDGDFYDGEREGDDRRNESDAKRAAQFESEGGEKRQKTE
UniProt A5JYW9: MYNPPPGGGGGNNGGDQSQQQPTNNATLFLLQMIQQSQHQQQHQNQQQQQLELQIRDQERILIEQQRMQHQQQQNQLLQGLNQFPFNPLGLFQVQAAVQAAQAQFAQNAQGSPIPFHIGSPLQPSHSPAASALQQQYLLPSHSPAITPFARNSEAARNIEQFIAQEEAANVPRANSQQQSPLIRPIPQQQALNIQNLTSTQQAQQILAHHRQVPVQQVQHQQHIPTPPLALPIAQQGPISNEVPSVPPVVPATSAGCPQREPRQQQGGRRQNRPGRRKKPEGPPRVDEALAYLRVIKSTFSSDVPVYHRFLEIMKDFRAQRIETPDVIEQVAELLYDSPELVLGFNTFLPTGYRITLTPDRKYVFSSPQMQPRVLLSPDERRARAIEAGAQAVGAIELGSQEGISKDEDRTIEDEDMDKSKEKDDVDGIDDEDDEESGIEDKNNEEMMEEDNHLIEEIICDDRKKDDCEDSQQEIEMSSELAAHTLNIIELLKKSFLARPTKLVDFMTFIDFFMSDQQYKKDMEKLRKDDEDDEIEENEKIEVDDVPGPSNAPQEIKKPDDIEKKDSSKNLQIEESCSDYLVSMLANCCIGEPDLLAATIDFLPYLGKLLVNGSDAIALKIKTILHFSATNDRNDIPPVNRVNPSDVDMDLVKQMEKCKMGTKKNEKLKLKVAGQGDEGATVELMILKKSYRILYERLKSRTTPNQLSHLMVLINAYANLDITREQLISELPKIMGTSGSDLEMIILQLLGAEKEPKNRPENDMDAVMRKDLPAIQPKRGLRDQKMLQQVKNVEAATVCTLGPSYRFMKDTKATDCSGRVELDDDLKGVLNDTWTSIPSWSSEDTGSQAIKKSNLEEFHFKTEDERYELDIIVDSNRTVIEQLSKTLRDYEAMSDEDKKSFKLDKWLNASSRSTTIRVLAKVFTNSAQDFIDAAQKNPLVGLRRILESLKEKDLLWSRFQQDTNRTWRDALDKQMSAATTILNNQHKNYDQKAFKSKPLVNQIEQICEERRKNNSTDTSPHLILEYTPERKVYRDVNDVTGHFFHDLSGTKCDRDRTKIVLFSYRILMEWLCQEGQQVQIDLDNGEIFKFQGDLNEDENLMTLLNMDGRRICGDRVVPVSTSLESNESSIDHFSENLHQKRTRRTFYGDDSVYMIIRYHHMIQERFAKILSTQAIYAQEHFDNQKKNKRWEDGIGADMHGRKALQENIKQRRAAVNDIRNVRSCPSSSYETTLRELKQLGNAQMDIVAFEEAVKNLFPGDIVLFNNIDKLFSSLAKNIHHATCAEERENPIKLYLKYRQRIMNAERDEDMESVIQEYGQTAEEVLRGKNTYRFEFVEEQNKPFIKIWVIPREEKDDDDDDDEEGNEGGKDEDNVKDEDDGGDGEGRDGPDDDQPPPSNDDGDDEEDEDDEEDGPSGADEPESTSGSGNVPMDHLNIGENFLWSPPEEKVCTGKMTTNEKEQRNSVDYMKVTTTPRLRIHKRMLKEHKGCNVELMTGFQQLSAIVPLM

B1: SUMV-2 (protein, UniProt Q22992 1-1145)
chain: MKPGRKSLPKKNRASNITEKMPTTSTEAQSSSSKNQDRCRSFSQELGVDDEPEEQQAPVATPKQTKKAQKTAKTTEEVKSPRKSARKSELKKPEPEEKAKEPRKSASKRKSSSLMNKDEPSTSTEAPSADVPGTSEASDEASEIQEAPENPNSALAIKKRLMGGGESSKSAPTKNPPKARKSNVKKPEKEAEALAPPEPPAEPQEAAETPAPEPLVPEKKPKIEDAPTTSSPKKSTPTSAPPTRASARVSKPNRLYADGSFNTEILGRTRITEQNPVKEAQAKESTPELADLPLPAGRRKSTAAPRAPPAPKPIPVINGVLRGYIPSVKVPLAEYEVDGEIINLNEGVNETMDTILAKVCEDGVEKHEDIDPKVVKAKKLAKIDYTKRLKLQVKKLDIQMRIKIPSTPEELGKRKRQAPKTDDFYWSAQSRTKLKGSSKEREETPAFDEESPIGGDEKRQQKARESISHLFDAEMDASIKEAKKYSVSFDKYIKPKITGALKHAKIKLMSRKRQSAEPDDFYYHELLVDQVSPSNSNVENVDVDVDIEETDDKVDPTEFEISEEGVIGIRDEAVDMAEQIALVIPRPTKHDGSPMSMDEIQMRAMEHVESRTKCLDGSLEIVLNQLGHEMAPPTRGVEEQGCQWHTVTSANAQALKNLYTIANNCTEDAITWTHQFMIENLEVHMLASYLSILKYAKRLNSSRFGYVISSTDQLDPEWTQVTSLLKSFVYKRHTEPGTEVLNNTIPYHRMTDTVFLLVPPTLTFGDHQRAPPRHHARIFRWLQSIGHQDSEFISFDEDIDATCSVAEYLSDVIVERICDKVRQKNKYRPNCNVVLVGYGASTYLIHRAANLVEGISAIISIGFPVMTSLGRRGTADDEILLTYCPTLFIVGAEGRRFNNEAITELRTSMISPSGLVVVGHSNDMILVPTSMLLRLGISQTVVFRMVLEKILDFLNLEPVRQQEFADLVPIELNNVFDLDSALLKSDKALSGLAFASSTHSASSSAAPSPVGASGRRATVTGAGSEDIAKRRKESIILSQQIAAPSISGPPPPAPSPRTEDRFLAFQNLVASTITTGDDMPRRASMGASPRVIERGDFRDHRPPPPPPLPILQNPVATPMSQQPPLPSPAPPPPRGPVDPASISLI

What follows are molecules tested against T1, MRG-1::3xHA (C. elegans (endogenous in worms)) (UniProt A7DTF0) (assay: affinity purification with mass spectrometry).
T1 sequence: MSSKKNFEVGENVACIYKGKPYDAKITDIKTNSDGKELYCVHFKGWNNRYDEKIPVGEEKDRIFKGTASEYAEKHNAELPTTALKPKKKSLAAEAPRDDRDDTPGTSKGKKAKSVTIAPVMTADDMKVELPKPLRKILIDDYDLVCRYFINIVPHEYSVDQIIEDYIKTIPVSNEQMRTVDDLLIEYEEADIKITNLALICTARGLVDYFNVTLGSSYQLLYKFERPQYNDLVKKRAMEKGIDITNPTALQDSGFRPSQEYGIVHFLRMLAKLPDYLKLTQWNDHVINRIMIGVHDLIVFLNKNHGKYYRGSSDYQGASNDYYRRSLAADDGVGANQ

binding, binds:
HDA-1 (from UniProt O17695 1-461)
ATHP-1, AT Hook plus PHD finger transcription factor (C. elegans (endogenous in worms))
SIN-3 (from UniProt A5JYW9 1-1507)
B1
